Results from patent publication US20130303539A1, “COMPOUNDS WITH TRPV4 ACTIVITY, COMPOSITIONS AND ASSOCIATED METHODS THEREOF” (priority 2012, published 2013).
Some of these results come from one statement about several compounds together.

Tested on: MB model of glaucoma
Experiment: IOP time course after a single eye drop in the MB model of glaucoma
Assay type: in vivo, mouse
Experimental: Specifically, microbeads (MBs) were injected into the anterior chamber of a mouse eye as described in Example 2 with PBS-injected eyes used as controls. Compound 1 (10 mg/kg body weight) (or PBS vehicle) was injected intraperitoneally (IP). […] IOP was measured in mice between 10:00 AM and 1:00 PM with the TonoLab rebound tonometer (Colonial Medical Supply, Franconia, NH/Tyolat, Helsinki, Finland). Mice were sedated with IP injection of Avertin with final amount calculated by weight (e.g., 0.5 ml for 21-24 g animals). Animals were placed on a jack stand platform and the tonolab was clamped on a ring stand and centered onto the mid-cornea. During measurements animal were neither restrained nor touched. Each eye was measured twenty consecutive times, the highest and lowest values were discarded and the values were averaged.
FIG. 9 illustrates the short-term effects of a single dose of Compound 1 (eye drop) in the MB model of glaucoma. IOP was measured as described in Example 3 at the indicated time points after receiving a drop of Compound 1. Compound 1 reduced IOP beginning at 1 hour after dosing and continued through 6 hours after dosing.
FIG. 10 illustrates a time course of Compounds 1, 2, 5 and Compound 2-HCl as well as a positive control compound, timolol, with regard to inhibition of IOP. The experiment was conducted as described in Example 9. […]

For `Cc1c(C(=O)Nc2cccc(C(F)(F)F)c2)c2ccccc2n1CCCN1CCOCC1` [Compound 5, N-(3-(trifluoromethyl)phenyl)-2-methyl-1-(3-morpholinopropyl)-1H-indole-3-carboxamide], the “duration of IOP reduction after dosing” value was “at least 6 hours” and the “onset of IOP reduction after dosing” value was ≤ 1 h.
